Assay results published in PMC8024676.
No constants are given. Whether binding was seen depends on the method and setting. In cells and extracts the contact can be indirect. A yes stands for co-enrichment or nearness to the bait. Other partners may have been found.

Biological target: Mauve-mCherry (Drosophila melanogaster)
Test: affinity purification with mass spectrometry; Mv-mCherry isolated on RFP-Trap-MA beads from protein extracts of 1 g of 0-3 h embryos; Or-R embryos as control; two independent pull-downs

B1: Rab5 (protein, UniProt Q9V3I2 1-219)
chain: MATTPRSGGASGTGTAQRPNGTSQNKSCQFKLVLLGESAVGKSSLVLRFVKGQFHEYQESTIGAAFLTQTICIEDTVVKFEIWDTAGQERYHSLAPMYYRGAQAAIVVYDIQNQDSFQRAKTWVKELHKQASPNIVIALAGNKADLSNIRVVEFDEAKQYAEENGLLFMETSAKTGMNVNDIFLAIAKKLPKNDGANNQGTSIRPTGTETNRPTNNCCK
For B1, the binding was “binds”.
